Measured values published in publication PMC3829167, “Directed Evolution of an Angiopoietin-2 Ligand Trap by Somatic Hypermutation and Cell Surface Display*” (The Journal of Biological Chemistry, 2013).
These are yes or no findings as the source states them, for the method shown. Some results given as binding are weak or reduced against the parent protein; the word gives no strength.

T1: human angiopoietin 2 (human, UniProt O15123 19-496)
T1 construct: human angiopoietin 2 (Ang2), recombinant protein from R&D Systems; also called Ang2; source: bought: R&D Systems
T1 sequence (looked up): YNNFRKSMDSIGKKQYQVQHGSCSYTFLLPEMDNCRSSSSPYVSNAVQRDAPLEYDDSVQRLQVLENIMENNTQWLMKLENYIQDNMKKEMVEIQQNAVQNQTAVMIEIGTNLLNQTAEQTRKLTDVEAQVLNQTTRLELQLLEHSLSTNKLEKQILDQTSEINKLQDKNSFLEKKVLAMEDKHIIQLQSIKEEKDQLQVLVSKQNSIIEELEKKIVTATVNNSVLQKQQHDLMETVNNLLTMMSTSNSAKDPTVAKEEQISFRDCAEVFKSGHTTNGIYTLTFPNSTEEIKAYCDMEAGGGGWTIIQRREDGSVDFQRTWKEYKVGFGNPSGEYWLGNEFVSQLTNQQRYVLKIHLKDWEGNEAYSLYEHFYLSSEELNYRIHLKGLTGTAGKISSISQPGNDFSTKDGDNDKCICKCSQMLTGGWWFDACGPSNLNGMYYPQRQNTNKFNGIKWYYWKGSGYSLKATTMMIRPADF

B1: soluble Tie2 ectodomain (1-442)-Fc fusion protein with the double Arg-167/His-168 deletion (Fc fusion, human, UniProt Q02763 23-442, looked up)
chain: AMDLILINSLPLVSDAETSLTCIASGWRPHEPITIGRDFEALMNQHQDPLEVTQDVTREWAKKVVWKREKASKINGAYFCEGRVRGEAIRIRTMKMRQQASFLPATLTMTVDKGDNVNISFKKVLIKEEDAVIYKNGSFIHSVPEVPDILEVHLPHAQPQDAGVYSARYIGGNLFTSAFTRLIVRRCEAQKWGPECNHLCTACMNNGVCHEDTGECICPPGFMGRTCEKACELHTFGRTCKERCSGQEGCKSYVFCLPDPYGCSCATGWKGLQCNEACHPGFYGPDCKLRCSCNNGEMCDRFQGCLCSPGWQGLQCEREGIQRMTPKIVDLPDHIEVNSGKFNPICKASGWPLPTNEEMTLVKPDGTVLHPKDFNHTDHFSVAIFTIHRILPPDSGVWVCSVNTVAGMVEKPFNISVK
notes: signal peptide in the construct; human Tie2 ectodomain, residues 1-442, Arg-167 and His-168 deleted; also called ΔRH; ΔArg-167/His-168; source: HEK293 cells, transfected, secreted, purified (nickel-nitrilotriacetic acid chromatography); not shown: Fc (human), C-terminal, kept

How the values were obtained:
[1] = biological target: wild-type Tie2 ectodomain (residues 1-442) surface expression construct on DT40 cells (human) (UniProt Q02763); assay: flow cytometry on cells; DT40 cells displaying the Tie2 ectodomain construct incubated with 1 nM ligand for 30 min at room temperature in PBS with 10% fetal bovine serum; bound ligand stained at 4 °C with anti-His6, anti-Ang1 plus fluorescent secondary antibody, or fluorescent streptavidin; only the binder purified
human angiopoietin 2 = biological target: T1, human angiopoietin 2; assay: ELISA; 5 μg/ml Ang1 or Ang2 immobilised in 96-well plates; blocked with TBS, 1 mg/ml BSA, 0.1% Triton-X 100; ectodomain-Fc fusion protein bound for 1 h at different concentrations, detected with anti-Tie2 ectodomain antibodies; saturation binding curves fitted by nonlinear regression; both purified

| Molecule | binding [1] | binding (human angiopoietin 2) |
| --- | --- | --- |
| human angiopoietin 2 (from UniProt O15123 19-496) (ligand) | binds | – |
| B1 | – | no binding |
